Laboratory results: PubChem BioAssay AID504804 (Drosophila RNAi Screening Center, 2011)
In all, the deposit lists about 19,000 reagents; below is an unselected part of those with a known target gene and a result. Of all reagents, 47 (0.25%) were called active. 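Signals are raw, not normalised; exact z-scores behind calls not deposited; actives needed confirmation, so some wells reaching 2 SD are inactive.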 The numbers tell different reagents against one gene apart. A plus sign joins genes that one reagent is predicted to hit. Reagent sequences are not shown.

- Purpose: 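Fly genes whose loss lessens doxorubicin-driven cell death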 (primary screen)
- Cells: Drosophila Kc cells
- Reagents: long dsRNA against Drosophila genes, 0.5 µg dsRNA per well
- Timing: 96 h (48 h knock-down, then 48 h drug)
- Treatment: doxorubicin 5 µg/ml for 48 h, added 48 h after dsRNA
- Read-out: 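Viability measured as cellular ATP by luminescence after 48 h knock-down then 48 h doxorubicin at 5 µg/ml; unnormalised plate counts for each replicate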
- Direction: raw ATP luminescence: higher = more viable cells, protection from doxorubicin
- Call rule: 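z-score of 2 or more over plate mean in both duplicates, retained only when retests and separate dsRNAs confirm the protection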

CG30340
- raw ATP luminescence, replicate 1: 93413
- raw ATP luminescence, replicate 2: 85307
- Outcome: inactive

CG15403
- raw ATP luminescence, replicate 1: 23697
- raw ATP luminescence, replicate 2: 31000
- Outcome: inactive

Set1 #1
- raw ATP luminescence, replicate 1: 2.21e5
- raw ATP luminescence, replicate 2: 2.02e5
- Outcome: inactive

Set1 #2
- raw ATP luminescence, replicate 1: 2.42e5
- raw ATP luminescence, replicate 2: 1.99e5
- Outcome: inactive

CG3335
- raw ATP luminescence, replicate 1: 79573
- raw ATP luminescence, replicate 2: 70463
- Outcome: inactive

tup
- raw ATP luminescence, replicate 1: 1.16e5
- raw ATP luminescence, replicate 2: 84290
- Outcome: inactive

CtsL4
- raw ATP luminescence, replicate 1: 48830
- raw ATP luminescence, replicate 2: 81287
- Outcome: inactive

CG4935
- raw ATP luminescence, replicate 1: 71597
- raw ATP luminescence, replicate 2: 79247
- Outcome: inactive

CG31760
- raw ATP luminescence, replicate 1: 66173
- raw ATP luminescence, replicate 2: 72483
- Outcome: inactive

CG14445
- raw ATP luminescence, replicate 1: 39110
- raw ATP luminescence, replicate 2: 36120
- Outcome: inactive

stnB + stnA #1
- raw ATP luminescence, replicate 1: 1.94e5
- raw ATP luminescence, replicate 2: 2.03e5
- Outcome: inactive

stnB + stnA #2
- raw ATP luminescence, replicate 1: 2.30e5
- raw ATP luminescence, replicate 2: 2.70e5
- Outcome: inactive

stnB + stnA #3
- raw ATP luminescence, replicate 1: 4.10e5
- raw ATP luminescence, replicate 2: 3.26e5
- Outcome: inactive

Hel25E
- raw ATP luminescence, replicate 1: 60713
- raw ATP luminescence, replicate 2: 47737
- Outcome: inactive

att-ORFB + DPCoAC
- raw ATP luminescence, replicate 1: 45620
- raw ATP luminescence, replicate 2: 45130
- Outcome: inactive

ash1
- raw ATP luminescence, replicate 1: 19347
- raw ATP luminescence, replicate 2: 19453
- Outcome: inactive

CG7691
- raw ATP luminescence, replicate 1: 51780
- raw ATP luminescence, replicate 2: 50420
- Outcome: inactive

Psn
- raw ATP luminescence, replicate 1: 78177
- raw ATP luminescence, replicate 2: 67403
- Outcome: inactive

Entries above whose gene name begins with A or a (2):
att-ORFB + DPCoAC
- raw ATP luminescence, replicate 1: 45620
- raw ATP luminescence, replicate 2: 45130
- Outcome: inactive

ash1
- raw ATP luminescence, replicate 1: 19347
- raw ATP luminescence, replicate 2: 19453
- Outcome: inactive

The results go on.
CG14820
- raw ATP luminescence, replicate 1: 74277
- raw ATP luminescence, replicate 2: 74163
- Outcome: inactive

CG16824
- raw ATP luminescence, replicate 1: 47460
- raw ATP luminescence, replicate 2: 62983
- Outcome: inactive

Pgam5-2
- raw ATP luminescence, replicate 1: 42010
- raw ATP luminescence, replicate 2: 49570
- Outcome: inactive

Hsc70-5
- raw ATP luminescence, replicate 1: 78307
- raw ATP luminescence, replicate 2: 68357
- Outcome: inactive

Mst33A
- raw ATP luminescence, replicate 1: 41497
- raw ATP luminescence, replicate 2: 76363
- Outcome: inactive

CG15170
- raw ATP luminescence, replicate 1: 65790
- raw ATP luminescence, replicate 2: 65260
- Outcome: inactive

Srg2 + CG42826 #1
- raw ATP luminescence, replicate 1: 41073
- raw ATP luminescence, replicate 2: 36480
- Outcome: inactive

Srg2 + CG42826 #2
- raw ATP luminescence, replicate 1: 69370
- raw ATP luminescence, replicate 2: 56280
- Outcome: inactive

CG8229
- raw ATP luminescence, replicate 1: 50967
- raw ATP luminescence, replicate 2: 53687
- Outcome: inactive

ND-15
- raw ATP luminescence, replicate 1: 66767
- raw ATP luminescence, replicate 2: 62680
- Outcome: inactive
